Drawing on patent US20170145113A1 (Genentech, published 2017), this text covers binding for one molecule.

The target of assay [1] is T1, murine HtrA3 protease domain (murine, UniProt Q9D236 135-350, limits assumed).
T1 construct: domain: PD (protease domain); also called muHtrA3-PD; murine HtrA3-PD
T1 sequence (looked up): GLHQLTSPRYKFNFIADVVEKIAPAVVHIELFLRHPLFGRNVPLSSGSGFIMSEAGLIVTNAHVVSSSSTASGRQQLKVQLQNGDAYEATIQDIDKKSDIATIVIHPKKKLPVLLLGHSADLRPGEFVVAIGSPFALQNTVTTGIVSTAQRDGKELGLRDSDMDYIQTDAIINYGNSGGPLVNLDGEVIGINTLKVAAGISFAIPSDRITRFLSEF
The assay is described as follows: ELISA.

Assay [2] concerns the target T1, murine HtrA3 protease domain. Kind of assay: ELISA, hybridoma clone. Background: ELISA stands for enzyme-linked immunosorbent assay.

No constants are given. Whether binding was seen depends on the method and setting. Some binding calls cover weakened binding; strength is not graded here.

B1: anti-HtrA1 hybridoma antibody clone 19B12 (antibody, V domains shown)
VH: EVKLVESGGGLVEPGGSLKLACVASGFTFSSYIMSWVRQTPEKRLEWVAYISNGGGTTYYSDTIKGRFTISRDNAKNTLYLQMSTLKSEDTAIYFCARQNFRSDGSSMDYWGQGTAVTVSS
VL: NIVVTQSPASLAVSLGQRATISCRASESVDSYGKSFMHWYQQKPGQPPKLLIYLASKLESGVPARFSGSGSRTDFTLTIDPVEADDAATYYCQQNNEDPYTFGGGTKLEIK
notes: Murine mIgG2a, from hybridoma or recombinant from 293 cells; also called m19B12
Regarding B1, the binding entry in assay [1] and in assay [2] was “binds” throughout.
